# Experimental data from publication PMC5450158 (European journal of pharmaceutical sciences : official …, 2017).
# By UniProt entry, the sequences of proteins in these tests, tags left out. Where a name states a change or a piece, a line headed by the entry shows the natural chain unless it says otherwise.
# UniProt O15438: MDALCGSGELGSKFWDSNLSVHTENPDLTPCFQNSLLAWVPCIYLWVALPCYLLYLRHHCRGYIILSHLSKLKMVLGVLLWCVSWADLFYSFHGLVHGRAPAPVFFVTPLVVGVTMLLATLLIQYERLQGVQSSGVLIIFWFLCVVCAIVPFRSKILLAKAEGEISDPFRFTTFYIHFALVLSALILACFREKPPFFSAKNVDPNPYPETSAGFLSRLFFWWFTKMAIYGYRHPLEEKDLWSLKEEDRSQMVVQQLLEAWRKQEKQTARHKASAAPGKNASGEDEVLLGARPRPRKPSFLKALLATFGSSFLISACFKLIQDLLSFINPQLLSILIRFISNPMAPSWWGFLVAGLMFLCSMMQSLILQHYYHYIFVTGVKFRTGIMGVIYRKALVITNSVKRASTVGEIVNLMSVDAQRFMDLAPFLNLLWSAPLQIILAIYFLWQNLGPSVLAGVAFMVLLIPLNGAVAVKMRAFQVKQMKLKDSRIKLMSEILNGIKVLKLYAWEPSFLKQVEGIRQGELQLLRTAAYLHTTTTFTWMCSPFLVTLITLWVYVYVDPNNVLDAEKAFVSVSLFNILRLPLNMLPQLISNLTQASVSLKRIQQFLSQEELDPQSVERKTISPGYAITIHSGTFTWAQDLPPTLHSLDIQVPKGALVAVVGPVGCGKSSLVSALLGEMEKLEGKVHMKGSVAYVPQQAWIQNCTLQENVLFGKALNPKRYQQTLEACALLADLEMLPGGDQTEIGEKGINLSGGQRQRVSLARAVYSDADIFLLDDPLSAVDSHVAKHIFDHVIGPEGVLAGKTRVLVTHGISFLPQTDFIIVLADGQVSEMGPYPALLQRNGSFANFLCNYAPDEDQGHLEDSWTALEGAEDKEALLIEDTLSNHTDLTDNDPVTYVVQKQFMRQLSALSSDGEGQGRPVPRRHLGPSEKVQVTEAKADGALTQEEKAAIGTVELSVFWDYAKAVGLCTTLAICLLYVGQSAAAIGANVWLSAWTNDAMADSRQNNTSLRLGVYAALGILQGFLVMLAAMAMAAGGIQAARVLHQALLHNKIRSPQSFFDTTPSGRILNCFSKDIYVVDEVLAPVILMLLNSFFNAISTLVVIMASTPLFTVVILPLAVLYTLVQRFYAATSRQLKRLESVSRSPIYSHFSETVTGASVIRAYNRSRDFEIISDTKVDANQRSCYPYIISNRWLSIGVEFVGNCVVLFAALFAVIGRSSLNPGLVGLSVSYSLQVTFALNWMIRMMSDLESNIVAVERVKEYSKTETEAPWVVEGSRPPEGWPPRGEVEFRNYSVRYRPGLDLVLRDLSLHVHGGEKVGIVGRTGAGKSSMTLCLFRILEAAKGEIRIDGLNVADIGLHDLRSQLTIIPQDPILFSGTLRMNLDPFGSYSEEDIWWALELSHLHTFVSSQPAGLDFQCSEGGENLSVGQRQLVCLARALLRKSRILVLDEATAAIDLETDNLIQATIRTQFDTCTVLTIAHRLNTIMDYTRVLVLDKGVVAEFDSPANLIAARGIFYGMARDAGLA
# Molecular target: MRP3 (ABCC3) (Homo sapiens, UniProt O15438)
# Assay: inhibition of ATP-dependent [3H]-E217G uptake, membrane vesicles
# Conditions: 10 μM E217G, 5 min, 37 °C, 100 μM compound, value is remaining uptake
structure (smiles),measurement,value
CCCCc1oc2ccccc2c1C(=O)c1cc(I)c(OCCN(CC)CC)c(I)c1 [amiodarone],"E217G uptake, % of control at 100 μM",58.4%
